Tested on: DMC
Experiment: Ultrafiltration to assess noncovalent binding of R-I-Cad to DMC

CCN(CC)c1ccc2c(-c3ccccc3C(=O)N3CCC(C(=O)NCCCCCN)CC3)c3ccc(=[N+](CC)CC)cc-3oc2c1 [R-I-Cad, rhodamine B-isonipecotyl-cadaverine]
R-I-Cad in the eluate after ultrafiltration (R-I-Cad 8.1 µM, DMC 300 µM, 3 kDa cut-off, RP-HPLC): not detectable | factor of drop of free R-I-Cad concentration (at 300 µM DMC, estimated from FA rate dependence on R-I-Cad): greater than 300

Source: publication PMC9104438, “Application of a Fluorescence Anisotropy-Based Assay to Quantify Transglutaminase 2 Activity in Cell Lysates” (International Journal of Molecular Sciences, 2022)
